Test results from patent US6506767B1, “8-chloro-6,11-dihydro-11-(4-piperidylidine)-5H-benzo[5,6]cyclohepta[1-2-b] pyridine” (Schering Corporation, priority 1997, dated 2003).

Tested on: monkey model

SMILES: Clc1ccc2c(c1)CCc1cccnc1C2=C1CCNCC1 [form 1, 8-chloro-6,11-dihydro-11-(4-piperidylidene)-5H-benzo[5,6]cyclohepta[1,2-b]pyridine]
- Antihistaminic activity: demonstrated
